Measurements taken from patent US20220169720A1.
These are yes or no findings as the source states them, for the method shown. In cells and extracts the contact can be indirect. Some binding calls cover weakened binding; strength is not graded here. Where a sequence is shown, tags or fusion partners need not be part of it.

Protein sequences, listed by entry. Tags and fused reporters are not part of them. Lines headed by an entry give the natural chain unless they say otherwise; changes in a name come on top.
UniProt Q5S007: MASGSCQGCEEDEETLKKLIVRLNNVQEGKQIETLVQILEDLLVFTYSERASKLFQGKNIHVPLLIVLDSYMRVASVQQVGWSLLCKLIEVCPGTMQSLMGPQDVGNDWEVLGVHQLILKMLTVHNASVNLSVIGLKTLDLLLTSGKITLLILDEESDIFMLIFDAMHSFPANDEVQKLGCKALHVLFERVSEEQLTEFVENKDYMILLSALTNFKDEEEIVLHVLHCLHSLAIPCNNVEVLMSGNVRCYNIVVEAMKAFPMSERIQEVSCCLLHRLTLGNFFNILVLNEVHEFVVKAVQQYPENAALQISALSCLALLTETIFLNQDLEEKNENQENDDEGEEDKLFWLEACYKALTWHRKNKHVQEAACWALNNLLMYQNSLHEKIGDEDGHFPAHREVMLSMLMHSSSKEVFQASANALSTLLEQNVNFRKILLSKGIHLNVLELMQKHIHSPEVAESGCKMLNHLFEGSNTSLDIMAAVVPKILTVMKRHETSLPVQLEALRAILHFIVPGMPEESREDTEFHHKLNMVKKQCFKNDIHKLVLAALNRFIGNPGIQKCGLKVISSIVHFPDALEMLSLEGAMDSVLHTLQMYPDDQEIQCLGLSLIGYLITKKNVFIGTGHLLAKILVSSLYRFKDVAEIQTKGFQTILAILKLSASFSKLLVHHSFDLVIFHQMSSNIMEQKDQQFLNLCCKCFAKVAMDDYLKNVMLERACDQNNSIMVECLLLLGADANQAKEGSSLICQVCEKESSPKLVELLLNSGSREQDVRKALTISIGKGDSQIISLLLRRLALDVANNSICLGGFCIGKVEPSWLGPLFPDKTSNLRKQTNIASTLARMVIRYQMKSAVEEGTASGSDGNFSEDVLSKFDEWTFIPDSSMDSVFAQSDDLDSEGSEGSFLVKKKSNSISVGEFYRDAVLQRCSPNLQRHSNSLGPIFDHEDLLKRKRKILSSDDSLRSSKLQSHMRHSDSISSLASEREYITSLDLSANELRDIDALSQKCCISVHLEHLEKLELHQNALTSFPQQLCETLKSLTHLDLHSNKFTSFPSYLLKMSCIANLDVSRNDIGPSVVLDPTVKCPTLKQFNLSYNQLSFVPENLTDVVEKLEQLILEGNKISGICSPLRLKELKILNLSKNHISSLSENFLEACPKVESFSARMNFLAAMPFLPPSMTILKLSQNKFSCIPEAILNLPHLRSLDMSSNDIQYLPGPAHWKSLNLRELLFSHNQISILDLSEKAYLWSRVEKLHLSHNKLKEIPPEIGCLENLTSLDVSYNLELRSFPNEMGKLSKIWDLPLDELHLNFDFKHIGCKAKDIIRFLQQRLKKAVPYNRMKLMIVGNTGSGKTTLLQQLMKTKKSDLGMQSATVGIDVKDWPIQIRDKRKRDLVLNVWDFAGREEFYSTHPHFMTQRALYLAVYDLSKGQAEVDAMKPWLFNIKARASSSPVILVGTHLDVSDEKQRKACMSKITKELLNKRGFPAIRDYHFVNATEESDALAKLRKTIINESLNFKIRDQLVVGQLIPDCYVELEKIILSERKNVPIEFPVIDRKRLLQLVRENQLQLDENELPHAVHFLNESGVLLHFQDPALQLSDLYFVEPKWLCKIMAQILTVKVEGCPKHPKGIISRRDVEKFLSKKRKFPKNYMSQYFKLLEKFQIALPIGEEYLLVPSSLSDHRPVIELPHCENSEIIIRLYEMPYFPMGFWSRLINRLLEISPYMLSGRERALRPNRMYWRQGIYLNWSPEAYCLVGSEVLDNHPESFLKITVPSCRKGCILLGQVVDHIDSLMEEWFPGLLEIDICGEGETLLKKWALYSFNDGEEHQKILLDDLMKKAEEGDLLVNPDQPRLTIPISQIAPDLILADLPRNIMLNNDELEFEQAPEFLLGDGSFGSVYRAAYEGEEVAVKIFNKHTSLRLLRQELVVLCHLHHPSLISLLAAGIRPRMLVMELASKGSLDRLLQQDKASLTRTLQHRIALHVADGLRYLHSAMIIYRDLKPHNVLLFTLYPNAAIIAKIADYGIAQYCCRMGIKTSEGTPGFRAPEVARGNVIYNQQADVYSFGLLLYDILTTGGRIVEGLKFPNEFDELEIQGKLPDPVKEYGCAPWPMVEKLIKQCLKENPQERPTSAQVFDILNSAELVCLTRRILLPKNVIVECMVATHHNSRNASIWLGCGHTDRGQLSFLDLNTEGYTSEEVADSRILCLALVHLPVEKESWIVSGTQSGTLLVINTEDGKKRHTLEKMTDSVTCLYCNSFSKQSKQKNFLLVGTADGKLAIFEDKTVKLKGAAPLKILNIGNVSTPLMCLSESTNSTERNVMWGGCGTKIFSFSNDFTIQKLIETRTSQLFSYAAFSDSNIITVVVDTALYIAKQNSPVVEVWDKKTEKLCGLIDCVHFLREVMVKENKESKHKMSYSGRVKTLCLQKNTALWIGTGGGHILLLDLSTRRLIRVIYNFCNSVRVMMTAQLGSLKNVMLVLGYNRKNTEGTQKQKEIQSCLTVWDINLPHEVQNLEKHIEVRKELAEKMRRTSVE

Molecular target: T1, Rubicon-Flag (Homo sapiens (Human)) (UniProt Q92622)
T1 sequence: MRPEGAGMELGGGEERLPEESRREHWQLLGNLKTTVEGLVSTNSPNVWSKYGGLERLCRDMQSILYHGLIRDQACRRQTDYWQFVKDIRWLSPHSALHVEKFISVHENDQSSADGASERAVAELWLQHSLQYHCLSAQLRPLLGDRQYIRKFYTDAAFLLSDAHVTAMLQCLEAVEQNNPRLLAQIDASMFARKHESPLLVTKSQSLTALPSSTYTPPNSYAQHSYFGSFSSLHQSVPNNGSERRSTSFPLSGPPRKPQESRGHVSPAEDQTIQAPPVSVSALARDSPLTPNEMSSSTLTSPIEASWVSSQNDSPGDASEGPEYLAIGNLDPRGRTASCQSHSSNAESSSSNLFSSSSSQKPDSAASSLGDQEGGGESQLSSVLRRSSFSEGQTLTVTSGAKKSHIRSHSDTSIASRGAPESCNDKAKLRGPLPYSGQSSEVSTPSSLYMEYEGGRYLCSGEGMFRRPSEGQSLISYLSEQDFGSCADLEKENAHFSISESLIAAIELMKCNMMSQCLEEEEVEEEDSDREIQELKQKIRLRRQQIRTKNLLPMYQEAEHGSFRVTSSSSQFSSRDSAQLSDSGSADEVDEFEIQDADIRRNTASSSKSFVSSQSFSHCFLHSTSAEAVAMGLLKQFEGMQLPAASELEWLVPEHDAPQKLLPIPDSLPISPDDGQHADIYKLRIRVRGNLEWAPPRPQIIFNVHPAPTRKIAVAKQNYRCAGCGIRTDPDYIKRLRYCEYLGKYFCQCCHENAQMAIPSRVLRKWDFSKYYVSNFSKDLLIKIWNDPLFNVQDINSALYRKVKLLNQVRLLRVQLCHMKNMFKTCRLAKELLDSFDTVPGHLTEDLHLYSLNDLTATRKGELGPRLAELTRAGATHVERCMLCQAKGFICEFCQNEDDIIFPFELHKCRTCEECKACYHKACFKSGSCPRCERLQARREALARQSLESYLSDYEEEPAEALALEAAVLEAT
Experiment: co-immunoprecipitation from HEK lysates over-expressing human LRRK2-GFP and/or Rubicon-Flag

- binding: binds
Substance: human LRRK2-GFP (from UniProt Q5S007 1-2527) (enzyme)
